Laboratory results from patent US7651661B2, “Medical devices with broad spectrum antimicrobial activity” (Board of Regents, the University of Texas System, priority 2001, dated 2010).
At least one structure is not confirmed: it was looked up by name or label, or the drawing left a doubt.

How the values were obtained:
Assay in all cases: Zones of inhibition of impregnated devices, modified Kirby-Bauer technique
[1] = system: MRSA2066 (Methicillin-Resistant Staphylococcus aureus); format: cell-based; conditions: for Zones of Inhibition (in mm) against MRSA2066, Si-catheter: Silicone catheter (Table 11); for Zones of Inhibition (in mm) against MRSA2066, Silk Suture: Silk suture (Table 11)
[2] = system: C. Parap.1-100-0022 (Candida Parapsilosis); format: cell-based; conditions: for Zones of Inhibition (in mm) against C. Parap.1-100-0022, Si-catheter: Silicone catheter (Table 11); for Zones of Inhibition (in mm) against C. Parap.1-100-0022, Silk Suture: Silk suture (Table 11)
Alcaligenes faecalis3681 = format: cell-based, Alcaligenes faecalis
[3] = imparted by Polyurethane catheters, double lumen 10.0 FR
[4] = imparted by Silicone catheters, double lumen 10.0 FR-Cook
[5] = imparted by Silk Sutures (Table 10)
[6] = imparted by endotracheal PVC tubes, 7.0 mm I.D.

Compound	Zones of Inhibition (in mm) against MRSA2066, Si-catheter [1]	Zones of Inhibition (in mm) against MRSA2066, Silk Suture [1]	Zones of Inhibition (in mm) against C. Parap.1-100-0022, Si-catheter [2]	Zones of Inhibition (in mm) against C. Parap.1-100-0022, Silk Suture [2]	Zones of Inhibition (in mm) against MRSA2066 [1, 3]	Zones of Inhibition (in mm) against MRSA2066 [1, 4]	Zones of Inhibition (in mm) against MRSA2066 [1, 5]	Zones of Inhibition (in mm) against Alcaligenes faecalis3681 (Alcaligenes faecalis3681; [3])	Zones of Inhibition (in mm) against Alcaligenes faecalis3681 (Alcaligenes faecalis3681; [4])	Zones of Inhibition (in mm) against C. Parap.1-100-0022 [2, 3]	Zones of Inhibition (in mm) against C. Parap.1-100-0022 [2, 4]	Zones of Inhibition (in mm) against C. Parap.1-100-0022 [2, 5]	Zones of Inhibition (in mm) against MRSA2066 [1, 6]	Zones of Inhibition (in mm) against Alcaligenes faecalis3681 (Alcaligenes faecalis3681; [6])	Zones of Inhibition (in mm) against C. Parap.1-100-0022 [2, 6]
CN(C)c1ccc(C(=C2C=CC(=[N+](C)C)C=C2)c2ccc(N(C)C)cc2)cc1.[OH-] [GV^+OH^−]	18:19 mm	17:17 mm	19:19 mm	13:14 mm	–	–	–	–	–	–	–	–	–	–	–
CC(C)(C)CC(C)(C)c1ccc([O-])c(Cc2ccc(Cl)cc2Cl)c1.CN(C)c1ccc(C(=C2C=CC(=[N+](C)C)C=C2)c2ccc(N(C)C)cc2)cc1 [GV^+·CFTL^−]	–	–	–	–	23:23 mm	20:20 mm	17:17 mm	15:17 mm	10:10 mm	30:32 mm	28:29 mm	15:16 mm	–	–	–
CN(C)c1ccc(C(=C2C=CC(=[N+](C)C)C=C2)c2ccc(N(C)C)cc2)cc1.Cc1cc([O-])cc(C)c1Cl [GV^+·PCMX^−]	–	–	–	–	24:24 mm	16:16 mm	11:11 mm	18:20 mm	0:0 mm	31:31 mm	16:16 mm	5:5 mm	27:27 mm	27:28 mm	34:34 mm
CN(C)c1ccc(C(=C2C=CC(=[N+](C)C)C=C2)c2ccc(N(C)C)cc2)cc1.[S-]c1nc2ccccc2s1 [GV^†MBT^−]	13:13 mm	8:8 mm	12:12 mm	0:0 mm	–	–	–	–	–	–	–	–	–	–	–
CN(C)c1ccc(C(=C2C=CC(=[N+](C)C)C=C2)c2ccc(N(C)C)cc2)cc1.O=C(Nc1ccc(Cl)c(Cl)c1)c1cc(Cl)ccc1[O-] [GV^†TCSA^−]	14:14 mm	12:13 mm	11:11 mm	10:10 mm	–	–	–	–	–	–	–	–	–	–	–
